In paper PMC11822393:
Where two headings read alike, the source gives them in different places. These are yes or no findings as the source states them, for the method shown. Some binding calls cover weakened binding; strength is not graded here.

Protein sequences, listed by entry. Tags and fused reporters are not part of them.
UniProt P93835: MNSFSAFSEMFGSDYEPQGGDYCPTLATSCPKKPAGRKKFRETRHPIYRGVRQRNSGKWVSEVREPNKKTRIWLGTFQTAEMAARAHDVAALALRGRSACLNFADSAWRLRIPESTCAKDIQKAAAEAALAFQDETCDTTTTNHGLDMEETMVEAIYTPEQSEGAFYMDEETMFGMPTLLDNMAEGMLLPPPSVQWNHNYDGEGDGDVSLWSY
UniProt Q9SYS6: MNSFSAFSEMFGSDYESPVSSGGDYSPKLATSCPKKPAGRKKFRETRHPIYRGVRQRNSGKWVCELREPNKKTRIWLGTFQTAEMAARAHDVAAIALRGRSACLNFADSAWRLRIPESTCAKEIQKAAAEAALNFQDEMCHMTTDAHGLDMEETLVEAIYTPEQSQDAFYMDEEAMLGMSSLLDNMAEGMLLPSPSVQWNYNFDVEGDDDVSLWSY

T1: AtPUB19 (Arabidopsis thaliana) (UniProt O80742)
T1 sequence: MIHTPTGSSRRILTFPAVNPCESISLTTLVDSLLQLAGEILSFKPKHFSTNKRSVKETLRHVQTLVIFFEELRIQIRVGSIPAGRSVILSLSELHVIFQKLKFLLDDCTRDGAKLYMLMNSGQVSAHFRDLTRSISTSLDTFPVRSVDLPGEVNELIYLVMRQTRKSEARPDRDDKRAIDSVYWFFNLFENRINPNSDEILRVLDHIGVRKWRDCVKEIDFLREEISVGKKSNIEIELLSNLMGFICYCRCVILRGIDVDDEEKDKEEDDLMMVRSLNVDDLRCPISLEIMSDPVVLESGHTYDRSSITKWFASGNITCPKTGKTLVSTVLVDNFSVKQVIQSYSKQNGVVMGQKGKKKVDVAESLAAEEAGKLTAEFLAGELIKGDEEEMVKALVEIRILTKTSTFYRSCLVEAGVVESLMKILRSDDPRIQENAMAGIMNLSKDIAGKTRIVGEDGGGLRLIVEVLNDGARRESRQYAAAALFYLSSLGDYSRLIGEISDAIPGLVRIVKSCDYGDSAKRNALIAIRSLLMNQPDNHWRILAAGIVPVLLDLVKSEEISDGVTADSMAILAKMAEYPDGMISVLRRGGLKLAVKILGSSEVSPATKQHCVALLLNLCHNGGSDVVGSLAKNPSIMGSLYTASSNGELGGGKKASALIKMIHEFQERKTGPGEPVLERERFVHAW


Assays:
[1] = target: T1, AtPUB19 (Arabidopsis thaliana); test: two-hybrid; AtPUB19 against AtICE1, AtICE2, AtCBF1 and AtCBF2 (Supplemental Fig. S6); the method is not named in the sentences, which stand among the Y2H results; vectors not told
[2] = target: T1, AtPUB19 (Arabidopsis thaliana); test: as above; remark: listed apart in the source

| binding [1] | binding [2] | Molecule |
| --- | --- | --- |
| binds | – | AtCBF1 (from UniProt P93835 1-213) |
| binds | – | AtCBF2 (from UniProt Q9SYS6 1-216) |
| – | binds | AtICE1 (protein, UniProt Q9LSE2 1-494) MGLDGNNGGGVWLNGGGGEREENEEGSWGRNQEDGSSQFKPMLEGDWFSSNQPHPQDLQMLQNQPDFRYFGGFPFNPNDNLLLQHSIDSSSSCSPSQAFSLDPSQQNQFLSTNNNKGCLLNVPSSANPFDNAFEFGSESGFLNQIHAPISMGFGSLTQLGNRDLSSVPDFLSARSLLAPESNNNNTMLCGGFTAPLELEGFGSPANGGFVGNRAKVLKPLEVLASSGAQPTLFQKRAAMRQSSGSKMGNSESSGMRRFSDDGDMDETGIEVSGLNYESDEINESGKAAESVQIGGGGKGKKKGMPAKNLMAERRRRKKLNDRLYMLRSVVPKISKMDRASILGDAIDYLKELLQRINDLHNELESTPPGSLPPTSSSFHPLTPTPQTLSCRVKEELCPSSLPSPKGQQARVEVRLREGRAVNIHMFCGRRPGLLLATMKALDNLGLDVQQAVISCFNGFALDVFRAEQCQEGQEILPDQIKAVLFDTAGYAGMI |
